No constants are given. Whether binding was seen depends on the method and setting. Binding can be weak; no strength is given.

Sequences of proteins named here, by UniProt entry; tags and fusion partners are left off. A change or cut given only in a name is not applied to a line headed by its entry.
UniProt Q9XER7: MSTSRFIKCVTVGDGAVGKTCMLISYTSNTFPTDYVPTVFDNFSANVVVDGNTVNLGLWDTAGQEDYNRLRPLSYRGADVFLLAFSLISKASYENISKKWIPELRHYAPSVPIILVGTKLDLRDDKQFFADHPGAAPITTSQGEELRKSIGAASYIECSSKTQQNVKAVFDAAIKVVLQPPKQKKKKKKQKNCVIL

The target in this experiment is MBP-PpRopGAP1 (wild type) (Physcomitrium patens). In words: pull-down; amylose resin loaded with wild-type or mutated MBP-PpRopGAP1, incubated with equal amounts of purified GST-PpROP4 forms for four hours; GST-PpROP4 stained with Coomassie blue; both purified.

In the case of “GST-PpROP4 (wild type) (from UniProt Q9XER7)”, the binding entry is “binds weakly”.

These data come from paper PMC10625565.
